Measured values taken from PubChem BioAssay AID1487 (National Center for Advancing Translational Sciences (NCATS), 2009).
The list shows a part of the results. These are further read-outs of the screen, such as a control signal, another cell line or another target. No call is given for them. Most of these compounds were active or inconclusive in the main read-out, so they are no random draw. Words in brackets tell the shape of the fitted curve; partial curves, single points and poor fits give uncertain potencies.

Experiment: qHTS Assay for Modulators of Lamin A Splicing
Conditions: HeLa LMNA splicing GFP/RFP minigene ratio, 48 h
In short: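 Read-out is the ratio of GFP to DsRed2 object intensity, acquired by 488 nm laser-scanning cytometry on HeLa lamin A-EGFP minigene reporter cells. Compound incubation 48 hrs at 37 °C in Opti-MEM with 2% FBS; DMSO 0.5% final.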

[1] = measured here: GFP splicing reporter channel
[2] = measured here: RFP viability control channel

Row | Structure (SMILES) | AC50 [1] | AC50 [2]
1 | O=C(CNc1ccc2c(c1)OCO2)N/N=C\c1cn(Cc2ccccc2)c2ccccc12 | 20 µM [rising, single point] | 28.2 µM [rising, single point]
2 | COc1cc(CNc2ccc(CNc3ncn[nH]3)cc2)cc(Cl)c1OCc1ccccc1 | – | 15.8 µM [rising, single point]
3 | COc1ccc(NC(=O)[C@@H](NC(=O)c2ccccc2)C(C)C)cc1S(=O)(=O)N1CCCCC1 | – | 17.8 µM [rising, single point]
4 | O=C(CSc1nnc2ccccn12)NCc1ccco1 | – | 0.0891 µM [falling, full curve, poor fit]
5 | CC(C)N1CCC(N2CCN(CCCc3ccccc3)CC2CCO)CC1 (stereo not given) | 1 µM [falling, partial curve] | 1.12 µM [falling, partial curve]
6 | O=C(c1ccco1)N1CCN(S(=O)(=O)/C=C/c2ccccc2)CC1 | – | 2.51 µM [falling, partial curve]
7 | CCCOC(=O)c1ccc(Nc2cc(C)nc3ncnn23)cc1 | 12.6 µM [rising, single point] | 31.6 µM [rising, single point]
8 | COc1ccc(CNC(=O)CN2CCC(C(=O)c3ccc(OC)cc3)CC2)cc1 | 15.8 µM [rising, partial curve, poor fit] | 14.1 µM [rising, partial curve]
9 | Clc1ccc(-c2csc(N3CCSCC3)n2)cc1 | 35.5 µM [rising, single point] | –
10 | COc1cc(CNc2ccc(C)c(C)c2)cc(OC)c1OC | – | 35.5 µM [falling, single point]
11 | CCN(CC)C(=O)CSc1nnc(-c2ccc(F)cc2)n1N | 5.62 µM [rising, single point] | –
12 | Cc1cc2cc(CNC(=O)CCC(=O)O)ccc2n1C | 0.00282 µM [falling, full curve, poor fit] | –
13 | Cc1ccc(C2CC(c3cccs3)=NN2C(=O)c2ccco2)o1 (stereo not given) | 0.00447 µM [falling, full curve, poor fit] | 0.00501 µM [falling, full curve]
14 | COc1ccc2c(c1)C(=O)/C(=C/C=C/c1ccccc1)CC2 | – | 8.91 µM [rising, partial curve, poor fit]
15 | COc1cccc(-c2csc(N3CCN(C(=O)Nc4ccc(F)cc4)CC3)n2)c1 | – | 35.5 µM [rising, single point]
16 | N#CCSc1nc2c(c(=O)n1Cc1ccco1)C1(CCCC1)Cc1ccccc1-2 | 31.6 µM [rising, single point] | 35.5 µM [rising, single point]
17 | CCN(CC)c1ccc(C=C2C(=O)OC3(CCCCC3)OC2=O)cc1 | 0.891 µM [falling, full curve, poor fit] | 0.562 µM [falling, full curve, poor fit]
18 | CCC(C)NC(=O)c1cc(Sc2nnc(C)s2)nc2ccccc12 (stereo not given) | – | 5.62 µM [rising, full curve]

Row | Structure (SMILES) | AC50 [1] | AC50 [2]
19 | COc1ccc(C(=O)c2ccc(N3CCN(C(=O)c4ccc(F)cc4)CC3)c(F)c2)cc1Br | – | 5.62 µM [rising, single point]
20 | CCSc1nnc(NC(=O)c2cccc(OCc3c(C)noc3C)c2)s1 | 35.5 µM [rising, single point] | 31.6 µM [rising, single point]
21 | Cc1ccnc(NC(=O)/C=C/c2ccccc2[N+](=O)[O-])c1 | – | 1.26 µM [rising, full curve]
22 | COc1ccc(CCNC(=S)Nc2cc(C)cc(C)c2)cc1 | 14.1 µM [rising, partial curve] | 17.8 µM [rising, single point]
23 | CC1CC(=O)N(c2ccc(NCc3ccc(Cl)cc3)c([N+](=O)[O-])c2)C1=O (stereo not given) | 11.2 µM [rising, single point] | –
24 | COc1cc(OC)c(C2=NOC(C(=O)Nc3ccc4c(c3)OCO4)C2)cc1Cl (stereo not given) | – | 15.8 µM [rising, partial curve, poor fit]
25 | COCCNc1ncnc2ccc(-c3cccc(NS(C)(=O)=O)c3)cc12 | 11.2 µM [falling, partial curve] | 10 µM [falling, partial curve, poor fit]
26 | Cc1ccc(S(=O)(=O)N(Cc2ccc(F)cc2)Cc2ccco2)cc1 | 12.6 µM [rising, partial curve] | 31.6 µM [rising, single point]
27 | COc1ccc(C2CC(c3ccccc3)=NN2C(=O)COC(=O)c2nc3nc(C)cc(C)n3n2)cc1 (stereo not given) | 0.0631 µM [falling, full curve, poor fit] | 0.355 µM [falling, full curve, poor fit]
28 | c1ccc(Nc2ncnc3c2oc2ccccc23)cc1 | – | 7.94 µM [rising, partial curve, poor fit]
29 | Fc1ccc2nc(Nc3nc4c(F)cccc4s3)sc2c1 | – | 28.2 µM [rising, single point]
30 | COc1ccc(Sc2ccc(NC(=O)c3ccccc3Cl)cc2C#N)cc1 | 35.5 µM [falling, single point] | 25.1 µM [falling, single point]
31 | COc1ccc(/C=C2\SC(=O)N(CC(=O)NNC(=O)c3ccccc3O)C2=O)cc1 | 12.6 µM [rising, partial curve, poor fit] | –
32 | Cc1cc(C)c(C#N)c(SCc2cc3c(cc2Cl)OCO3)n1 | 22.4 µM [falling, single point] | 28.2 µM [falling, single point]
33 | Cc1nc(SCC(=O)NCc2ccco2)[nH]c(=O)c1C | 14.1 µM [falling, partial curve] | 14.1 µM [falling, partial curve]
34 | O=C(Nc1cccc(Cl)c1)c1ccc2c(c1)SC1=NS(=O)(=O)CCN12 | 0.891 µM [rising, full curve, poor fit] | –
35 | O=C(C[n+]1ccccc1)Nc1ccc(Oc2ccccc2)cc1 | 35.5 µM [falling, partial curve, poor fit] | –

Single records (already shown).
`Cc1ccnc(NC(=O)/C=C/c2ccccc2[N+](=O)[O-])c1` is listed as AC50 [2]: 1.26 µM [rising, full curve]
`CC1CC(=O)N(c2ccc(NCc3ccc(Cl)cc3)c([N+](=O)[O-])c2)C1=O` (stereo not given) is listed as AC50 [1]: 11.2 µM [rising, single point]
`COc1cc(OC)c(C2=NOC(C(=O)Nc3ccc4c(c3)OCO4)C2)cc1Cl` (stereo not given) is listed as AC50 [2]: 15.8 µM [rising, partial curve, poor fit]
